# Test: general procedure: Fmoc solid-phase peptide synthesis; Fmoc-Thr-(tBu)-Wang resin (Advanced Chem Tech), about 0.32 mmol/g; DIC/Oxyma
# Settings: whole synthesis, 220 nm, scale 0.125 mmol, acetate
substance,measurement,value
HSQGTFTSDYSKYLD(Aib)RRAQQFVK(4-Pal)LLST-OH,final HPLC purity,>98%
